# Some entries share one result that the patent states for a list of compounds.
# Molecular target: Raf kinase
# Experiment: Raf/Mek Filtration Assay or Biotinylated Raf Screen (procedures of Examples 94 or 95)
# Format: biochemical, human
# Settings: using the procedures of Examples 94 or 95; assay and Raf isoform not specified per compound; read-out: raf kinase inhibitory activity at an IC50
row,SMILES,IC50
1,"CNC(=O)c1cc(Oc2ccc3nc(Nc4cc(C5CCCCC5)ccc4OC)ncc3c2)ccn1 [Example 70, 4-[(2-{[5-cyclohexyl-2-(methyl-oxy)phenyl]amino}quinazolin-6-yl)oxy]-N-methylpyridine-2-carboxamide]",< 5 µM
2,"CNC(=O)c1cc(Oc2ccc3nc(Nc4cc(-c5ccccc5)ccc4C)ncc3c2)ccn1 [Example 71, N-methyl-4-({2-[(4-methyl-1,1′-biphenyl-3-yl)amino]quinazolin-6-yl}oxy)pyridine-2-carboxamide]",< 5 µM
3,"CNC(=O)c1cc(Oc2ccc3nc(Nc4ccc5c(c4)CCC5)ncc3c2)ccn1 [Example 72, 4-{[2-(2,3-dihydro-1H-inden-5-ylamino)quinazolin-6-yl]oxy}-N-methylpyridine-2-carboxamide]",< 5 µM
4,"CNC(=O)c1cc(Oc2ccc3nc(Nc4ccc(-c5ccccc5)cc4)ncc3c2)ccn1 [Example 73, 4-{[2-(1,1′-biphenyl-4-ylamino)-quinazolin-6-yl]oxy}-N-methyl-pyridine-2-carboxamide]",< 5 µM
5,"CNC(=O)c1cc(Oc2ccc3nc(Nc4ccc(F)cc4)ncc3c2)ccn1 [Example 74, 4-({2-[(4-fluorophenyl)amino]-quinazolin-6-yl}oxy)-N-methyl-pyridine-2-carboxamide]",< 5 µM
6,"CNC(=O)c1cc(Oc2ccc3nc(Nc4cccc(F)c4F)ncc3c2)ccn1 [Example 75, 4-({2-[(2,3-difluorophenyl)amino]-quinazolin-6-yl}oxy)-N-methyl-pyridine-2-carboxamide]",< 5 µM
7,"CNC(=O)c1cc(Oc2ccc3nc(Nc4ccc5c(c4)OC(F)(F)O5)ncc3c2)ccn1 [Example 76, 4-({2-[(2,2-difluoro-1,3-benzo-dioxol-5-yl)amino]quinazolin-6-yl}oxy)-N-methylpyridine-2-carboxamide]",< 5 µM
8,"CNC(=O)c1cc(Oc2ccc3nc(Nc4ccc5c(c4)Cc4ccccc4-5)ncc3c2)ccn1 [Example 77, 4-{[2-(9H-fluoren-2-ylamino)-quinazolin-6-yl]oxy}-N-methyl-pyridine-2-carboxamide]",< 5 µM
9,"CNC(=O)c1cc(Oc2ccc3nc(Nc4cccc(C5CCCCC5)c4)ncc3c2)ccn1 [Example 78, 4-({2-[(3-cyclohexylphenyl)-amino]quinazolin-6-yl}oxy)-N-methylpyridine-2-carboxamide]",< 5 µM
10,"CNC(=O)c1cc(Oc2ccc3nc(Nc4cccc(C(C)C)c4)ncc3c2)ccn1 [Example 79, N-methyl-4-[(2-{[3-(1-methyl-ethyl)phenyl]amino}quinazolin-6-yl)oxy]pyridine-2-carboxamide]",< 5 µM
11,"O=C(NCCCN1CCCC1=O)c1cc(Oc2ccc3nc(Nc4ccc(Br)cc4)ncc3c2)ccn1 [Example 80, 4-({2-[(4-bromophenyl)amino]-quinazolin-6-yl}oxy)-N-[3-(2-oxopyrrolidin-1-yl)propyl]-pyridine-2-carboxamide]",< 5 µM
12,"O=C(NCCO)c1cc(Oc2ccc3nc(Nc4ccc(Br)cc4)ncc3c2)ccn1 [Example 81, 4-({2-[(4-bromophenyl)amino]-quinazolin-6-yl}oxy)-N-(2-hydroxyethyl)pyridine-2-carboxamide]",< 5 µM
13,"O=C(NCCCn1ccnc1)c1cc(Oc2ccc3nc(Nc4ccc(Br)cc4)ncc3c2)ccn1 [Example 82, 4-({2-[(4-bromophenyl)amino]-quinazolin-6-yl}oxy)-N-[3-(1H-imidazol-1-yl)propyl]pyridine-2-carboxamide]",< 5 µM
14,"COCCCNC(=O)c1cc(Oc2ccc3nc(Nc4ccc(Br)cc4)ncc3c2)ccn1 [Example 83, 4-({2-[(4-bromophenyl)amino]-quinazolin-6-yl}oxy)-N-[3-(methyloxy)propyl]pyridine-2-carboxamide]",< 5 µM
15,"O=C(NCCN1CCCCC1)c1cc(Oc2ccc3nc(Nc4ccc(Br)cc4)ncc3c2)ccn1 [Example 84, 4-({2-[(4-bromophenyl)amino]-quinazolin-6-yl}oxy)-N-(2-piperidin-1-ylethyl)pyridine-2-carboxamide]",< 5 µM
16,"CCCNC(=O)c1cc(Oc2ccc3nc(Nc4ccc(Br)cc4)ncc3c2)ccn1 [Example 85, 4-({2-[(4-bromophenyl)amino]-quinazolin-6-yl}oxy)-N-propyl-pyridine-2-carboxamide]",< 5 µM
17,"CN(C)CCNC(=O)c1cc(Oc2ccc3nc(Nc4ccc(Br)cc4)ncc3c2)ccn1 [Example 86, 4-({2-[(4-bromophenyl)amino]-quinazolin-6-yl}oxy)-N-[2-(dimethylamino)ethyl]pyridine-2-carboxamide]",< 5 µM
18,"CNC(=O)c1cc(Oc2ccc3nc(Nc4cccc(SC(F)(F)F)c4)ncc3c2)ccn1 [Example 87, N-methyl-4-{[2-({3-[(trifluoro-methyl)thio]phenyl}amino)-quinazolin-6-yl]oxy}pyridine-2-carboxamide]",< 5 µM
19,"CNC(=O)c1cc(Oc2ccc3nc(Nc4ccc(Cl)cc4F)ncc3c2)ccn1 [Example 88, 4-({2-[(4-chloro-2-fluorophenyl)-amino]quinazolin-6-yl}oxy)-N-methylpyridine-2-carboxamide]",< 5 µM
20,"CNC(=O)c1cc(Oc2ccc3nc(Nc4ccc(Cl)c(C)c4)ncc3c2)ccn1 [Example 89, 4-({2-[(4-chloro-3-methylphenyl)-amino]quinazolin-6-yl}oxy)-N-methylpyridine-2-carboxamide]",< 5 µM
21,"CCCCc1ccc(Nc2ncc3cc(Oc4ccnc(C(=O)NC)c4)ccc3n2)cc1 [Example 90, 4-({2-[(4-butylphenyl)amino]-quinazolin-6-yl}oxy)-N-methyl-pyridine-2-carboxamide]",< 5 µM
22,"CNC(=O)c1cc(Oc2ccc3nc(Nc4ccc(Br)c(C)c4)ccc3c2)ccn1 [Example 91, (4-{2-[(4-bromo-3-methylphenyl)amino](6-quinolyloxy)}-(2-pyridyl))-N-methylcarboxamide]",< 5 µM
23,"CNC(=O)c1cc(Oc2ccc3nc(Nc4cccc(C(C)C)c4)ccc3c2)ccn1 [Example 92, N-methyl-4-[(2-{[3-(1-methylethyl)phenyl]amino}quinolin-6-yl)oxy]pyridine-2-carboxamide]",< 5 µM
24,"CNC(=O)c1cc(Oc2ccc3nc(Nc4cccc(C(C)(C)C)c4)cnc3c2)ccn1 [Example 93, 4-[2-(3-tert-Butyl-phenylamino)-quinoxalin-6-yloxy]-pyridine-2-carboxylic Acid Methylamide]",< 5 µM

# Reference: patent US7691866B2, “2,6-disubstituted quinazolines, quinoxalines, quinolines and isoquinolines and methods of their use as inhibitors of Raf kinase” (Novartis Vaccines and Diagnostics, Inc., priority 2003, dated 2010)
